Laboratory results published in publication doi:10.1101/313791 (bioRxiv, 2018).
These are yes or no findings as the source states them, for the method shown. Sequences can lack the tags named with a protein.

T1: HDA19 (histone deacetylase 19), full-length, BD fusion (Arabidopsis thaliana) (UniProt O22446)
T1 sequence: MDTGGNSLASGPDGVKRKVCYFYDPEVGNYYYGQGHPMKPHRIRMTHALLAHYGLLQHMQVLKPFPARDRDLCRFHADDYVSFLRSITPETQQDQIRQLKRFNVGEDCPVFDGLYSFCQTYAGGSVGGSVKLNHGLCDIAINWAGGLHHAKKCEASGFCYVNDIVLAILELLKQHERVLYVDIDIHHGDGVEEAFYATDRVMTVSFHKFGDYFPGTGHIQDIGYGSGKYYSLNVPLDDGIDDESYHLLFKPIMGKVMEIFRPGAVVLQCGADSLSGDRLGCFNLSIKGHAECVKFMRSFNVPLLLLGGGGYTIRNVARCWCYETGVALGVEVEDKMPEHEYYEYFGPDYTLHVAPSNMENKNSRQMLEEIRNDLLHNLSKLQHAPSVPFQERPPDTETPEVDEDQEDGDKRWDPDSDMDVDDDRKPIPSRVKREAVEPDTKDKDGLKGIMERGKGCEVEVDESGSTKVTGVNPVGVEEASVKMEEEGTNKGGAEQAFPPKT


Target: T1, HDA19 (histone deacetylase 19), full-length, BD fusion (Arabidopsis thaliana)
Assay: yeast three-hybrid

Row | binding | Binder
1 | no binding | SHORT-ROOT (SHR), AD fusion (protein, UniProt Q9SZF7 1-531) MDTLFRLVSLQQQQQSDSIITNQSSLSRTSTTTTGSPQTAYHYNFPQNDVVEECFNFFMDEEDLSSSSSHHNHHNHNNPNTYYSPFTTPTQYHPATSSTPSSTAAAAALASPYSSSGHHNDPSAFSIPQTPPSFDFSANAKWADSVLLEAARAFSDKDTARAQQILWTLNELSSPYGDTEQKLASYFLQALFNRMTGSGERCYRTMVTAAATEKTCSFESTRKTVLKFQEVSPWATFGHVAANGAILEAVDGEAKIHIVDISSTFCTQWPTLLEALATRSDDTPHLRLTTVVVANKFVNDQTASHRMMKEIGNRMEKFARLMGVPFKFNIIHHVGDLSEFDLNELDVKPDEVLAINCVGAMHGIASRGSPRDAVISSFRRLRPRIVTVVEEEADLVGEEEGGFDDEFLRGFGECLRWFRVCFESWEESFPRTSNERLMLERAAGRAIVDLVACEPSDSTERRETARKWSRRMRNSGFGAVGYSDEVADDVRALLRRYKEGVWSMVQCPDAAGIFLCWRDQPVVWASAWRPT
2 | no binding | JACKDAW (JKD), AD fusion (protein, UniProt Q700D2 1-503) MQMIPGDPFSISSSMGGFVHQETHLHHLQQQIPDLNPNSNPNPNAKPNSSSAKKKRNQPGTPDPDADVIALSPTTLMATNRFVCEICNKGFQRDQNLQLHRRGHNLPWKLKQRSKQEVIKKKVYICPIKTCVHHDASRALGDLTGIKKHYSRKHGEKKWKCEKCSKKYAVQSDWKAHAKTCGTREYKCDCGTLFSRKDSFITHRAFCDALTEEGARMSSLSNNNPVISTTNLNFGNESNVMNNPNLPHGFVHRGVHHPDINAAISQFGLGFGHDLSAMHAQGLSEMVQMASTGNHHLFPSSSSSLPDFSGHHQFQIPMTSTNPSLTLSSSSTSQQTSASLQHQTLKDSSFSPLFSSSSENKQNKPLSPMSATALLQKAAQMGSTRSNSSTAPSFFAGPTMTSSSATASPPPRSSSPMMIQQQLNNFNTNVLRENHNRAPPPLSGVSTSSVDNNPFQSNRSGLNPAQQMGLTRDFLGVSNEHHPHQTGRRPFLPQELARFAPLG
